In the experiment the target is biotinylated UV-DDB complex (DDB1/FA-DDB2) (human) (UniProt Q16531+Q92466). Briefly: pull-down; biotinylated UV-DDB complex (60 ng) held on streptavidin-coated paramagnetic beads, incubated on ice for 1 h with XPC/RAD23B/centrin-2 complex (30 ng); 25 mM Tris-HCl pH 7.5, 1 mM EDTA, 0.1 M NaCl, 10% glycerol, 1 mM DTT, 0.01% Triton X-100; immunoblot; both purified. On the technique in general: A western blot detects proteins with antibodies after separation by electrophoresis.

Sequences of proteins named here, by UniProt entry; tags and fusion partners are left off. A change or cut given only in a name is not applied to a line headed by its entry.
UniProt Q16531: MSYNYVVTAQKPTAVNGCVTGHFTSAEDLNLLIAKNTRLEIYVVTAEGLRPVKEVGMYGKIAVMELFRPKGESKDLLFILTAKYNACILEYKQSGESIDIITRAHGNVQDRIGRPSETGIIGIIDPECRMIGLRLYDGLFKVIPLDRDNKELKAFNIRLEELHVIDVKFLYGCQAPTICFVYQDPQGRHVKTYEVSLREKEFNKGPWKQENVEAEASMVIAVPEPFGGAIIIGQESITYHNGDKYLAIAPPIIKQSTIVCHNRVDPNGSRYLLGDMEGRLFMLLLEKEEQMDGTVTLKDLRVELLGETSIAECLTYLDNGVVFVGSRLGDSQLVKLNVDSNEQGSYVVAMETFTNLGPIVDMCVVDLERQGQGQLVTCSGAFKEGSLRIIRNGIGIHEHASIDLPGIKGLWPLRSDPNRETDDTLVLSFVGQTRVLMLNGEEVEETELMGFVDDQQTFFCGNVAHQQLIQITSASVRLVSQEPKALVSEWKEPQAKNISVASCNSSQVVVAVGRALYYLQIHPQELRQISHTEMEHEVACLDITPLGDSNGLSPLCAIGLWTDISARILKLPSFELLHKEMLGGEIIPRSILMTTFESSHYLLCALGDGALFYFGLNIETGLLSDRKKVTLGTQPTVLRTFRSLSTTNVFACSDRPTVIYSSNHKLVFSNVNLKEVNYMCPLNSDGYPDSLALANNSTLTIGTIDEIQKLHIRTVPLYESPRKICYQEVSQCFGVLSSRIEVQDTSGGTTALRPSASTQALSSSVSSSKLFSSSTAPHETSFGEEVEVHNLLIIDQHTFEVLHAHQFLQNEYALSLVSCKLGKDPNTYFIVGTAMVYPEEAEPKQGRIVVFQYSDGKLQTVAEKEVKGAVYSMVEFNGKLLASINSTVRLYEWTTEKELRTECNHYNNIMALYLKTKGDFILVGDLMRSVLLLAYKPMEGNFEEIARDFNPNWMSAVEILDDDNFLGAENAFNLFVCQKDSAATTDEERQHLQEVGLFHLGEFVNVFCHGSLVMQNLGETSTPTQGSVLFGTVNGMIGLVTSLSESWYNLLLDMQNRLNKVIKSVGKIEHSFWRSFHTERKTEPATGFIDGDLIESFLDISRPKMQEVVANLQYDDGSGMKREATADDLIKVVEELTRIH
UniProt Q92466: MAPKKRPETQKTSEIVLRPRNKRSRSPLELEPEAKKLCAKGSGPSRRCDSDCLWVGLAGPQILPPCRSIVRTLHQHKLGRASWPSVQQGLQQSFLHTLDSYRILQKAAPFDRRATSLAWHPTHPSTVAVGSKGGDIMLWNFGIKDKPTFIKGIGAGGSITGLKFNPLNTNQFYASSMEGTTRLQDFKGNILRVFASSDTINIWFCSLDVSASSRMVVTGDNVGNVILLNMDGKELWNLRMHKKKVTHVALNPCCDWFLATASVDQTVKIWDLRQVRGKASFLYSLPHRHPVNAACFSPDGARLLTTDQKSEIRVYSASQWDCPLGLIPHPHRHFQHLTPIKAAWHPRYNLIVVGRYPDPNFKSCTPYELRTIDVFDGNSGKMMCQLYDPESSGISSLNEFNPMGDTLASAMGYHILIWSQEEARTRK
UniProt Q01831: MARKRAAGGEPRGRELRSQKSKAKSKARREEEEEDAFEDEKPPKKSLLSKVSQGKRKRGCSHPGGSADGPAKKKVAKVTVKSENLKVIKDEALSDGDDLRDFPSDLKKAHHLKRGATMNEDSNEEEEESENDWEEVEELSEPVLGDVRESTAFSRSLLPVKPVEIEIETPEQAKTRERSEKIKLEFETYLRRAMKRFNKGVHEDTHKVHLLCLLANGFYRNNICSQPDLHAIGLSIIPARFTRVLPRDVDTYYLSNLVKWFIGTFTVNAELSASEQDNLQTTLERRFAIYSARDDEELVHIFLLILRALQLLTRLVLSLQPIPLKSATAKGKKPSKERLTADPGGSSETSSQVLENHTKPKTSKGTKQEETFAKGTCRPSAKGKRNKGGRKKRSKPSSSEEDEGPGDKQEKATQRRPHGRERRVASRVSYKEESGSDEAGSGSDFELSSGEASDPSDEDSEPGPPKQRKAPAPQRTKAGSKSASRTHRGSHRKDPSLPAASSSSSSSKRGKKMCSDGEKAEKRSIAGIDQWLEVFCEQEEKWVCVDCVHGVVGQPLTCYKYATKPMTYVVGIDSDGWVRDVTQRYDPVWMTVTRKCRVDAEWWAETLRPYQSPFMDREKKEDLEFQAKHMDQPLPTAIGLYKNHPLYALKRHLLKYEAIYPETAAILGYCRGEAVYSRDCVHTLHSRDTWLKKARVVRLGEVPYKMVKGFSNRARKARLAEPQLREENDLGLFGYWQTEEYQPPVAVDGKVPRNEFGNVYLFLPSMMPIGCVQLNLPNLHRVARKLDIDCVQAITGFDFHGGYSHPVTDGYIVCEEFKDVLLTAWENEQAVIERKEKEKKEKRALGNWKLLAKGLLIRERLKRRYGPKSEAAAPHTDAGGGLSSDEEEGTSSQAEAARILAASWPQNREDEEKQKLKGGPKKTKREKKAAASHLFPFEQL

No constants are given. Whether binding was seen depends on the method and setting. Some entries that bind do so weakly or less than the wild type.

“XPC/RAD23B/centrin-2 complex (XPC 3KR: K81R, K89R, K183R) (from UniProt Q01831 1-940; P54727 1-409; P41208 1-172)”: the binding entry is “binds”.
In the case of “XPC/RAD23B/centrin-2 complex (XPC WT) (from UniProt Q01831 1-940; P54727 1-409; P41208 1-172)” it was “binds”.
